Results reported in PMC4772114, “Structural basis for the regulation of enzymatic activity of Regnase-1 by domain-domain interactions” (Scientific Reports, 2016).

Experiments:
Experiment in all cases: EMSA
[1] = target: T1, Regnase-1 NTD-PIN-ZF (DDNN) D226N,D244N (Mus musculus) (UniProt Q5D1E7); settings: NTD does not significantly change binding; EMSA: 20 mM HEPES-NaOH pH 6.8, 150 mM NaCl, 1 mM DTT, 10% glycerol, 0.1% NP-40, 4 C, 30 min; recombinant protein; protein details: GST removed (HRV-3C); label: 5'-6-FAM
T1 sequence (looked up, limits assumed): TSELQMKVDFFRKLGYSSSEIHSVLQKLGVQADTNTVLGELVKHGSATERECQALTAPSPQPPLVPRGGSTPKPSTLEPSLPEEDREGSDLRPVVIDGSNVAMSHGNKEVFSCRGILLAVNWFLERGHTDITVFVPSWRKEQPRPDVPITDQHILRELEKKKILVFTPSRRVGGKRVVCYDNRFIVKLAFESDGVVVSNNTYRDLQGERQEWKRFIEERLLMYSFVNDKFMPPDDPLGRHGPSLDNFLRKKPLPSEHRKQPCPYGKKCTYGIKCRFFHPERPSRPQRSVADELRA

[2] = target: T2, Regnase-1 PIN-ZF (DDNN) D226N,D244N (Mus musculus) (UniProt Q5D1E7); settings: ZF increases binding; EMSA: 20 mM HEPES-NaOH pH 6.8, 150 mM NaCl, 1 mM DTT, 10% glycerol, 0.1% NP-40, 4 C, 30 min; recombinant protein; protein details: GST removed (HRV-3C); label: 5'-6-FAM
T2 sequence (looked up, limits assumed): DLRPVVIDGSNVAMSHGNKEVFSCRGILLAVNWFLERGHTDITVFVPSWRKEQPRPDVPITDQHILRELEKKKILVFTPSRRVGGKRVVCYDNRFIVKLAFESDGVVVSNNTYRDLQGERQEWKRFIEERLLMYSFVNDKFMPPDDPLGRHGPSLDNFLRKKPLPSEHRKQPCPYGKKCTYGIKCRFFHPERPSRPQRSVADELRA

[3] = target: T3, Regnase-1 PIN (DDNN) D226N,D244N (Mus musculus) (UniProt Q5D1E7); settings: lower than with ZF present; EMSA: 20 mM HEPES-NaOH pH 6.8, 150 mM NaCl, 1 mM DTT, 10% glycerol, 0.1% NP-40, 4 C, 30 min; recombinant protein; protein details: GST removed (HRV-3C); label: 5'-6-FAM
T3 sequence (looked up, limits assumed): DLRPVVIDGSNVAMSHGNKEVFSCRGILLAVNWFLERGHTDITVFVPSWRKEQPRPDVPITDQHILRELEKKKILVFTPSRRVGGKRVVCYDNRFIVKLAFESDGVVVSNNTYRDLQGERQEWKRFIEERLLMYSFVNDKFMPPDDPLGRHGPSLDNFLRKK

Sequence: UGUUGUUCUCUACGAAGAACUGACA [IL-6 mRNA 3'UTR (82-106), 6-FAM]
- binding result [1]: binds
- binding result [2]: binds
- binding result [3]: binds more weakly

The exact form of at least one protein or probe is not confirmed. For part of these data: Weaker means in comparison with the reference protein, sequence or condition of that experiment. At least one verdict rests on a figure or table, not on a statement of the authors. Tags and fusion partners may be left off the protein sequences shown.
